In article PMC12700999:
No constants are given. Whether binding was seen depends on the method and setting. In cells and extracts the contact can be indirect. Some results given as binding are weak or reduced against the parent protein; the word gives no strength.

Chains of the proteins cited; added tags and fusions are not shown. Residues count along the entry.
UniProt P02545, residues 1-646: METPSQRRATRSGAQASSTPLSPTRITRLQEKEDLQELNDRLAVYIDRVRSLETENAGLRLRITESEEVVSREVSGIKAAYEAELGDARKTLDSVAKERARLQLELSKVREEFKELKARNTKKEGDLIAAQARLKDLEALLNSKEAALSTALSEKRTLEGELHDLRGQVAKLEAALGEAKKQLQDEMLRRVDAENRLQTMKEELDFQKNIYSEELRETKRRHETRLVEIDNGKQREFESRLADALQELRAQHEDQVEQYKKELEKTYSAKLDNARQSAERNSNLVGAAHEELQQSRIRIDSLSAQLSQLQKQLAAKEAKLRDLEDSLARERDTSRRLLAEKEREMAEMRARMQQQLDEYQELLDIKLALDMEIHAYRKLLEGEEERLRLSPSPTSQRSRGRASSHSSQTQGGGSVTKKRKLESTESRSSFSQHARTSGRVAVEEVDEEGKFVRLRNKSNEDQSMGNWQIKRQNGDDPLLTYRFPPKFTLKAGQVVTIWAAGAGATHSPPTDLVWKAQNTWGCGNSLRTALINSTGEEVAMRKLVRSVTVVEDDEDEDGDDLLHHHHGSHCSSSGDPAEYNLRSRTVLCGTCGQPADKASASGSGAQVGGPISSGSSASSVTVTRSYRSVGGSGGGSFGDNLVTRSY
UniProt P35222: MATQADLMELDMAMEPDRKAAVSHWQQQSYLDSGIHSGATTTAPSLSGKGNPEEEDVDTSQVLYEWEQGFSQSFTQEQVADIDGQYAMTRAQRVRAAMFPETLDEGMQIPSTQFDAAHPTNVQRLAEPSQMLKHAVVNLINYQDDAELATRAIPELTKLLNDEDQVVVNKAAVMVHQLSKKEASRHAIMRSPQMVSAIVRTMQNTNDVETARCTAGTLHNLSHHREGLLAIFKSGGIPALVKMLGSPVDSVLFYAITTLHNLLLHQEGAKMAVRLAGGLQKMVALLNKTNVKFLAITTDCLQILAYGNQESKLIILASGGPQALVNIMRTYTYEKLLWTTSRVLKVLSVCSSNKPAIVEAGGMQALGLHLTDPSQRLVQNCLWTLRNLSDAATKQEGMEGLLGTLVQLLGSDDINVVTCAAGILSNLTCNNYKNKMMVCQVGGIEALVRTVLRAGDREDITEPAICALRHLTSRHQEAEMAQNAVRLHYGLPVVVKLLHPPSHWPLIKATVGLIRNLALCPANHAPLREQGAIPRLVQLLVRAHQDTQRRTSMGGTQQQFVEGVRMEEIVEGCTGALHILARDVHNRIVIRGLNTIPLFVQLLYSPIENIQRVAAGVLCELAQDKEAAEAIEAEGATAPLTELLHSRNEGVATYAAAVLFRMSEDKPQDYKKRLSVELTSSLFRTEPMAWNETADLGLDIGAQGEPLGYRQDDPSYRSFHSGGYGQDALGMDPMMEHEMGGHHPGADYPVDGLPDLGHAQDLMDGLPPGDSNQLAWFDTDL

Molecular target: Lamin A/C (human (endogenous in T24)) (UniProt P02545)
Assay: co-IP; lysates of T24 cells cultured on 5 kPa and 30 kPa polyacrylamide gels, with or without Lamin A/C depletion (shLMNA) on 30 kPa; anti-Lamin A/C antibody overnight at 4 °C, protein G agarose beads 2 h at 4 °C, washed twice with lysis buffer; immunoblot with anti-β-catenin antibody

β-catenin (from UniProt P35222 1-781)
binding: binds
